Measured values reported in PMC12359225.
These are yes or no findings as the source states them, for the method shown. Binding seen in cells or lysates may run through a third protein. Some binding calls cover weakened binding; strength is not graded here.

Protein sequences, listed by entry. Tags and fused reporters are not part of them.
UniProt Q8CFH6: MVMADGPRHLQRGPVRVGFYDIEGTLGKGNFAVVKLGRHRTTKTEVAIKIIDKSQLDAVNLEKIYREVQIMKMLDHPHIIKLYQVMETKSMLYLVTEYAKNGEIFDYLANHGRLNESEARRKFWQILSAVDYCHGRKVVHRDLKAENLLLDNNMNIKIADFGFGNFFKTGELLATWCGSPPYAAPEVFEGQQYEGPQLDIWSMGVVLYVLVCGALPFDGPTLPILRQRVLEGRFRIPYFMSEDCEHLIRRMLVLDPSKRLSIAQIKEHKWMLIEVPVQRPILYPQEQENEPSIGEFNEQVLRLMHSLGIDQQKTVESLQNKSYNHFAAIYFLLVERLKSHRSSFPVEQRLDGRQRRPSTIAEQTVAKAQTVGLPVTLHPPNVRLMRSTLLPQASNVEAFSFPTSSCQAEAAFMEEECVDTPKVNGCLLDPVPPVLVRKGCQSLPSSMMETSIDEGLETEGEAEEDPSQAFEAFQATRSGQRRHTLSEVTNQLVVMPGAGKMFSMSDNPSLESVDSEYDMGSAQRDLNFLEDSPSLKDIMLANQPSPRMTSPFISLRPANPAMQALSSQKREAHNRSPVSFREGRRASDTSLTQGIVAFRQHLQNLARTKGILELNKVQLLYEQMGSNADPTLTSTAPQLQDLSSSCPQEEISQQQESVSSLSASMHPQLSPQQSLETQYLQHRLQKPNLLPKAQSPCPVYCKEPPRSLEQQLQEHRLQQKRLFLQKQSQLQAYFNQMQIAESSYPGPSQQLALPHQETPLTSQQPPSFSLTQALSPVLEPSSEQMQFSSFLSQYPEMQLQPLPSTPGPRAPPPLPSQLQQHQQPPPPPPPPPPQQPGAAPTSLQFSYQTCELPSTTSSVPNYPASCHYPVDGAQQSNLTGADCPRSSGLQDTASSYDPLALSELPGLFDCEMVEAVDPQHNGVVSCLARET
UniProt Q6P4S6: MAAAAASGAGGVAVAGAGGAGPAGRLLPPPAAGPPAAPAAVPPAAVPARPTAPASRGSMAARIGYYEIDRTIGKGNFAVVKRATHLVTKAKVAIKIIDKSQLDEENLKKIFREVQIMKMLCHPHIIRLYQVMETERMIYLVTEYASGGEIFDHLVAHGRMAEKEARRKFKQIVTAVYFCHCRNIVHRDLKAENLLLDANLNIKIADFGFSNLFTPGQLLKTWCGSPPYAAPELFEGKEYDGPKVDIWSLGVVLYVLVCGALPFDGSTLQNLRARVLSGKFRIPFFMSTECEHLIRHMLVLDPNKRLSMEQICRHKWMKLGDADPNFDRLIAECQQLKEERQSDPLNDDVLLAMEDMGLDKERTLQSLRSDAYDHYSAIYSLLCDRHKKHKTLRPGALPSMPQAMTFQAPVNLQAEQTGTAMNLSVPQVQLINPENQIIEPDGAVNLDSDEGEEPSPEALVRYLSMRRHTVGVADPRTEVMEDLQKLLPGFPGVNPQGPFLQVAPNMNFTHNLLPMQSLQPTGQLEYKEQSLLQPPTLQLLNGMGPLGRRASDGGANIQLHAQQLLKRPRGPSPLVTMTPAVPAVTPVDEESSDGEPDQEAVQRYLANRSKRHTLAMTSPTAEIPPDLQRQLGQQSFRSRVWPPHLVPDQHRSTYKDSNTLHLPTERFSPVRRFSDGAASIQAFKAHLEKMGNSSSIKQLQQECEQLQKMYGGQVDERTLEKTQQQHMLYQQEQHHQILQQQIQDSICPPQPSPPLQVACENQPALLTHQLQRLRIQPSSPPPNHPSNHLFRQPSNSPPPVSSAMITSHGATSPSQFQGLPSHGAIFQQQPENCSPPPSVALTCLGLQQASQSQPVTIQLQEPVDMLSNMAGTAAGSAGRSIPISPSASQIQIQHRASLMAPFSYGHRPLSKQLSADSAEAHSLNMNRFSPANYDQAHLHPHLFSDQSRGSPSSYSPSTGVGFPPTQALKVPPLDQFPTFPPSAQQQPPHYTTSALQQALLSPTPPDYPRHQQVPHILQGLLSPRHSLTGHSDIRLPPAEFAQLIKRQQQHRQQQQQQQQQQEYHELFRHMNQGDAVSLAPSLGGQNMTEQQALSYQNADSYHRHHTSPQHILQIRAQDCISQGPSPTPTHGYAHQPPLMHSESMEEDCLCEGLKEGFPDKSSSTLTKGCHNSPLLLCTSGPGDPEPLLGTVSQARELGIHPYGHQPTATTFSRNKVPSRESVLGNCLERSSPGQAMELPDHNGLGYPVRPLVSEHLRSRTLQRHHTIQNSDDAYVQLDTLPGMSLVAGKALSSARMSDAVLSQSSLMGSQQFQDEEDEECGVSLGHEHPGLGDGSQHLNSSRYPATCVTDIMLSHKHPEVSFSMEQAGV

Key:
[1] = molecular target: T1, CREB-regulated transcriptional coactivator 2 (mouse (endogenous in primary calvarial osteoblasts)) (UniProt Q3U182); assay: co-IP; as a1, the samples of cells treated with 10 nM PTH (1-34) for 15 min, in which the SIK-CRTC2 interaction is mostly lost
T1 sequence: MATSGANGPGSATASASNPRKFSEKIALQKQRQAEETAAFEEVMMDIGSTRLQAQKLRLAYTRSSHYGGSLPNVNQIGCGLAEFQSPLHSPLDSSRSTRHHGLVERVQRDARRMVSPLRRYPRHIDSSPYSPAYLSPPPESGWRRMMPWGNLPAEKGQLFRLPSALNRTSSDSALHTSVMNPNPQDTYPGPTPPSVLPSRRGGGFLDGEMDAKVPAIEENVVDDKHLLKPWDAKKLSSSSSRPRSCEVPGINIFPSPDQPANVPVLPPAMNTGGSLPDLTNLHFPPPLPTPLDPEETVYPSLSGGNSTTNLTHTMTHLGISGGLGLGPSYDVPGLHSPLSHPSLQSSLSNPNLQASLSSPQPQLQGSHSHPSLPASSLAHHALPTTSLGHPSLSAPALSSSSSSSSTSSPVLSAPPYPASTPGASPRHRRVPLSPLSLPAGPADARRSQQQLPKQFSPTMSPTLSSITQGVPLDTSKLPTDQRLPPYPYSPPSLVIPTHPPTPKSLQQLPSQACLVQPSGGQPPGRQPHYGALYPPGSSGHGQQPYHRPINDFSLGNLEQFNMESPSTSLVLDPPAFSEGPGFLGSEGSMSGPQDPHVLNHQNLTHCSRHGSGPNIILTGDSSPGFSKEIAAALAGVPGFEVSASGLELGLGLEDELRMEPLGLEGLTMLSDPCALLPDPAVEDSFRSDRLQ

[2] = molecular target: T1, CREB-regulated transcriptional coactivator 2 (mouse (endogenous in primary calvarial osteoblasts)); assay: co-IP; endogenous proteins; lysates of mature primary mouse calvarial osteoblasts, basal or treated with 10 nM PTH (1-34) for 15 min; lysis buffer 0.5% Nonidet P-40, 50 mM Tris pH 8.0, 150 mM NaCl, 1 mM EDTA; antibody and protein AG-agarose overnight at 4 °C; immunoblot
[3] = molecular target: Salt-inducible kinase 2 (mouse (endogenous in primary calvarial osteoblasts)) (UniProt Q8CFH6); assay: co-IP; as a1, the samples of cells treated with 10 nM PTH (1-34) for 15 min, in which the SIK-CRTC2 interaction is mostly lost
[4] = molecular target: Salt-inducible kinase 3 (mouse (endogenous in primary calvarial osteoblasts)) (UniProt Q6P4S6); assay: as above
[5] = molecular target: Salt-inducible kinase 2 (mouse (endogenous in primary calvarial osteoblasts)) (UniProt Q8CFH6); assay: co-IP; endogenous proteins; lysates of mature primary mouse calvarial osteoblasts, basal or treated with 10 nM PTH (1-34) for 15 min; lysis buffer 0.5% Nonidet P-40, 50 mM Tris pH 8.0, 150 mM NaCl, 1 mM EDTA; antibody and protein AG-agarose overnight at 4 °C; immunoblot
[6] = molecular target: Salt-inducible kinase 3 (mouse (endogenous in primary calvarial osteoblasts)) (UniProt Q6P4S6); assay: as above

## Salt-inducible kinase 2 (from UniProt Q8CFH6 1-931) (enzyme)
[1]
  binding: binds weakly
[2]
  binding: binds

B1: CREB-regulated transcriptional coactivator 2 (protein, UniProt Q3U182 1-692)
chain: T1 sequence
[3]
  binding: binds weakly
[4]
  binding: binds weakly
[5]
  binding: binds
[6]
  binding: binds

B2: protein phosphatase 4 (enzyme, UniProt P97470 1-307)
chain: MAEISDLDRQIEQLRRCELIKESEVKALCAKAREILVEESNVQRVDSPVTVCGDIHGQFYDLKELFRVGGDVPETNYLFMGDFVDRGFYSVETFLLLLALKVRYPDRITLIRGNHESRQITQVYGFYDECLRKYGSVTVWRYCTEIFDYLSLSAIIDGKIFCVHGGLSPSIQTLDQIRTIDRKQEVPHDGPMCDLLWSDPEDTTGWGVSPRGAGYLFGSDVVAQFNAANDIDMICRAHQLVMEGYKWHFNETVLTVWSAPNYCYRCGNVAAILELDEHLQKDFIIFEAAPQETRGIPSKKPVADYFL
[2]
  binding: binds

B3: protein phosphatase 5 (enzyme, UniProt Q60676 1-499)
chain: MAMAEGERTECAETPRDEPPADGTLKRAEELKTQANDYFKAKDYENAIKFYSQAIELNPGNAIYYGNRSLAYLRTECYGYALGDATRAIELDKKYIKGYYRRAASNMALGKFRAALRDYETVVKVKPNDKDAKMKYQECSKIVKQKAFERAIAGDEHRRSVVDSLDIESMTIEDEYSGPKLEDGKVTITFMKDLMQWYKDQKKLHRKCAYQILVQVKEVLCKLSTLVETTLKETEKITVCGDTHGQFYDLLNIFELNGLPSETNPYIFNGDFVDRGSFSVEVILTLFGFKLLYPDHFHLLRGNHETDNMNQIYGFEGEVKAKYTAQMYELFSEVFEWLPLAQCINGKVLIMHGGLFSEDGVTLDDIRKIERNRQPPDSGPMCDLLWSDPQPQNGRSVSKRGVSCQFGPDVTKAFLEENQLDYIIRSHEVKAEGYEVAHGGRCVTVFSAPNYCDQMGNKASYIHLQGSDLRPQFHQFTAVPHPNVKPMAYANTLLQLGMM
[2]
  binding: binds
